For at least one compound, name, drawing or mass did not settle the structure.
Test system: mammary epithelial cells (MECs)
Assay: Hormone-induced proliferation of mammary epithelial cells in ovariectomized mice (BrdU incorporation)
Type: in vivo, mouse
Settings: BRCA1^Δ11p53^Δ5&6 MECs; exposure to estradiol
Protocol: MEC proliferation peaks at the estrous phase when progesterone level is highly elevated. To assess the contribution of steroid hormones to MECs proliferation an ovariectomy was performed to deplete circulating estrogen and progesterone. Since PR is one of the downstream target genes of ER, progesterone activity was targeted. Two weeks after ovariectomy mice were treated with progesterone daily for 3 days followed by BrdU pulse labeling. In control vehicle treated mice, no BrdU-positive MECs were found in ovariectomized wt, and p53^Δ5&6 gland, but ducts containing one or two BrdU-positive cells were detected in BRCA1^Δ11p53^Δ5&6 mammary glands (FIG. 2A). Elevated proliferation seen under ovarian hormone depletion is related to the ligand-independent activation of PR in BRCA1-deficient cells. Importantly, a higher number of BrdU-positive MECs was found in BRCA1^Δ11p53^Δ5&6 mammary glands upon exposure to progesterone; ducts containing up to 6 BrdU-positive cells were identified (FIG. 2A).
Two weeks before steroid hormone treatment animals were bilaterally ovariectomized Mammary glands were stimulated to proliferate with daily subcutaneous injections of either 1 μg of estradiol (E2758, Sigma, St. Louis, Mo.) or 1 mg of progesterone (P8783, Sigma, St. Louis, Mo.) for 3 days. Untreated mice were used as controls.

For `C[C@]12CC[C@@H]3c4ccc(O)cc4CC[C@H]3[C@@H]1CC[C@@H]2O` [estradiol], the “proliferation of MECs” value was “promoted proliferation”.
